Some of the results follow.
Columns and labels:
Experiment in all cases: glycan array binding signal (z-score within array); higher = stronger binding
Conditions in all cases: glycan notation: IUPAC condensed, linker removed
[1] = target: Gal(b1-4)GlcNAc(b1-3)Gal(b1-4)GlcNAc(b1-2)[Gal(b1-4)GlcNAc(b1-3)Gal(b1-4)GlcNAc(b1-6)]Man(a1-6)[Gal(b1-4)GlcNAc(b1-3)Gal(b1-4)GlcNAc(b1-2)Man(a1-3)]Man(b1-4)GlcNAc(b1-4)GlcNAc
In short: (§1)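 Columns mapping to the same glycan were averaged after glycan names were converted to IUPAC-condensed notation. The data come from 3228 arrays in the Consortium for Functional Glycomics database, limited to those with an available protein sequence. Binding is reported as a within-array Z-score averaged across arrays of one protein sequence and across linkers.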

[2] = target: Gal(b1-4)GlcNAc(b1-3)Gal(b1-4)GlcNAc(b1-2)[Gal(b1-4)GlcNAc(b1-3)Gal(b1-4)GlcNAc(b1-6)]Man(a1-6)[Gal(b1-4)GlcNAc(b1-3)Gal(b1-4)GlcNAc(b1-2)Man(a1-3)]Man(b1-4)GlcNAc(b1-4)[Fuc(a1-6)]GlcNAc
In short: as §1

[3] = target: Gal(b1-4)GlcNAc(b1-3)Gal(b1-4)GlcNAc(b1-3)Gal(b1-4)GlcNAc
In short: as §1

[4] = target: Gal(b1-4)GlcNAc(b1-3)Gal(b1-4)GlcNAc(b1-3)Gal(b1-4)GlcNAc(b1-2)Man(a1-3)[Gal(b1-4)GlcNAc(b1-3)Gal(b1-4)GlcNAc(b1-3)Gal(b1-4)GlcNAc(b1-2)Man(a1-6)]Man(b1-4)GlcNAc(b1-4)GlcNAc
In short: as §1

[5] = target: Gal(b1-4)GlcNAc(b1-3)Gal(b1-4)GlcNAc(b1-3)Gal(b1-4)GlcNAc(b1-2)Man(a1-3)[Gal(b1-4)GlcNAc(b1-3)Gal(b1-4)GlcNAc(b1-3)Gal(b1-4)GlcNAc(b1-2)Man(a1-6)]Man(b1-4)GlcNAc(b1-4)[Fuc(a1-6)]GlcNAc
In short: as §1

[6] = target: Gal(b1-4)GlcNAc(b1-3)Gal(b1-4)GlcNAc(b1-3)Gal(b1-4)GlcNAc(b1-2)[Gal(b1-4)GlcNAc(b1-3)Gal(b1-4)GlcNAc(b1-3)Gal(b1-4)GlcNAc(b1-6)]Man(a1-6)[Gal(b1-4)GlcNAc(b1-3)Gal(b1-4)GlcNAc(b1-3)Gal(b1-4)GlcNAc(b1-2)Man(a1-3)]Man(b1-4)GlcNAc(b1-4)[Fuc(a1-6)]GlcNAc
In short: as §1

[7] = target: Gal(b1-4)GlcNAc(b1-3)Gal(b1-4)GlcNAc(b1-3)Gal(b1-4)GlcNAc(b1-3)Gal(b1-4)GlcNAc(b1-2)Man(a1-3)[Gal(b1-4)GlcNAc(b1-3)Gal(b1-4)GlcNAc(b1-3)Gal(b1-4)GlcNAc(b1-3)Gal(b1-4)GlcNAc(b1-2)Man(a1-6)]Man(b1-4)GlcNAc(b1-4)GlcNAc
In short: as §1

[8] = target: Gal(b1-4)GlcNAc(b1-3)Gal(b1-4)GlcNAc(b1-3)Gal(b1-4)GlcNAc(b1-3)Gal(b1-4)GlcNAc(b1-2)Man(a1-3)[Gal(b1-4)GlcNAc(b1-3)Gal(b1-4)GlcNAc(b1-3)Gal(b1-4)GlcNAc(b1-3)Gal(b1-4)GlcNAc(b1-2)Man(a1-6)]Man(b1-4)GlcNAc(b1-4)[Fuc(a1-6)]GlcNAc
In short: as §1

[9] = target: Gal(b1-4)GlcNAc(b1-3)Gal(b1-4)GlcNAc(b1-3)Gal(b1-4)GlcNAc(b1-3)Gal(b1-4)GlcNAc(b1-2)[Gal(b1-4)GlcNAc(b1-3)Gal(b1-4)GlcNAc(b1-3)Gal(b1-4)GlcNAc(b1-3)Gal(b1-4)GlcNAc(b1-6)]Man(a1-6)[Gal(b1-4)GlcNAc(b1-3)Gal(b1-4)GlcNAc(b1-3)Gal(b1-4)GlcNAc(b1-3)Gal(b1-4)GlcNAc(b1-2)Man(a1-3)]Man(b1-4)GlcNAc(b1-4)[Fuc(a1-6)]GlcNAc
In short: as §1

[10] = target: Gal(b1-4)GlcNAc(b1-3)Gal(b1-4)GlcNAc(b1-3)Gal(b1-4)GlcNAc(b1-3)Gal(b1-4)GlcNAc(b1-3)Gal(b1-4)GlcNAc(b1-2)Man(a1-3)[Gal(b1-4)GlcNAc(b1-3)Gal(b1-4)GlcNAc(b1-3)Gal(b1-4)GlcNAc(b1-3)Gal(b1-4)GlcNAc(b1-3)Gal(b1-4)GlcNAc(b1-2)Man(a1-6)]Man(b1-4)GlcNAc(b1-4)GlcNAc
In short: as §1

[11] = target: Gal(b1-4)GlcNAc(b1-3)Gal(b1-4)GlcNAc(b1-3)Gal(b1-4)GlcNAc(b1-3)Gal(b1-4)GlcNAc(b1-3)Gal(b1-4)GlcNAc(b1-2)Man(a1-3)[Gal(b1-4)GlcNAc(b1-3)Gal(b1-4)GlcNAc(b1-3)Gal(b1-4)GlcNAc(b1-3)Gal(b1-4)GlcNAc(b1-3)Gal(b1-4)GlcNAc(b1-2)Man(a1-6)]Man(b1-4)GlcNAc(b1-4)[Fuc(a1-6)]GlcNAc
In short: as §1

[12] = target: Gal(b1-4)GlcNAc(b1-3)Gal(b1-4)GlcNAc(b1-3)Gal(b1-4)GlcNAc(b1-3)Gal(b1-4)GlcNAc(b1-3)Gal(b1-4)GlcNAc(b1-2)[Gal(b1-4)GlcNAc(b1-3)Gal(b1-4)GlcNAc(b1-3)Gal(b1-4)GlcNAc(b1-3)Gal(b1-4)GlcNAc(b1-3)Gal(b1-4)GlcNAc(b1-6)]Man(a1-6)[Gal(b1-4)GlcNAc(b1-3)Gal(b1-4)GlcNAc(b1-3)Gal(b1-4)GlcNAc(b1-3)Gal(b1-4)GlcNAc(b1-3)Gal(b1-4)GlcNAc(b1-2)Man(a1-3)]Man(b1-4)GlcNAc(b1-4)[Fuc(a1-6)]GlcNAc
In short: as §1

[13] = target: Gal(b1-4)GlcNAc(b1-3)Gal(b1-4)GlcNAc(b1-3)Gal(b1-4)GlcNAc(b1-3)Gal(b1-4)GlcNAc(b1-3)Gal(b1-4)GlcNAc(b1-3)Gal(b1-4)GlcNAc(b1-2)Man(a1-3)[Gal(b1-4)GlcNAc(b1-3)Gal(b1-4)GlcNAc(b1-3)Gal(b1-4)GlcNAc(b1-3)Gal(b1-4)GlcNAc(b1-3)Gal(b1-4)GlcNAc(b1-3)Gal(b1-4)GlcNAc(b1-2)Man(a1-6)]Man(b1-4)GlcNAc(b1-4)GlcNAc
In short: as §1

[14] = target: Gal(b1-4)GlcNAc(b1-3)Gal(b1-4)GlcNAc(b1-3)GalNAc
In short: as §1

[15] = target: Gal(b1-4)GlcNAc(b1-3)Gal(b1-4)GlcNAc(b1-3)[Gal(b1-4)GlcNAc(b1-3)Gal(b1-4)GlcNAc(b1-6)]GalNAc
In short: as §1

[16] = target: Gal(b1-4)GlcNAc(b1-3)Gal(b1-4)GlcNAc(b1-6)[Gal(b1-3)]GalNAc
In short: as §1

[17] = target: Gal(b1-4)GlcNAc(b1-3)Gal(b1-4)[Fuc(a1-3)]GlcNAc(b1-3)Gal(b1-4)[Fuc(a1-3)]GlcNAc
In short: as §1

[18] = target: Gal(b1-4)GlcNAc(b1-3)GalNAc
In short: as §1

[19] = target: Gal(b1-4)GlcNAc(b1-3)[Fuc(a1-3)GlcNAc(b1-6)]Gal(b1-4)Glc
In short: as §1

[20] = target: Gal(b1-4)GlcNAc(b1-3)[Gal(b1-4)GlcNAc(b1-6)]Gal(b1-4)GlcNAc
In short: as §1

[21] = target: Gal(b1-4)GlcNAc(b1-3)[GlcNAc(b1-6)]Gal(b1-4)GlcNAc
In short: as §1

[22] = target: Gal(b1-4)GlcNAc(b1-6)Gal(b1-4)GlcNAc
In short: as §1

B1: Mermaid2 (Stilbonema majum) (protein)
chain: MGSSHHHHHHSSGLVPRGSHMAASGWLRSPQGTVVKLYRRSLSWSKADEFCKDVDGRLVVDRTADMHLFLIKNVLKEKKSRVWVGLRRTAPHSRTWIWSDGTRQNEDDLNTNLWLRDEPNDAAGEEECALFMYSPWEKAWGLNDYLCRGGCRSYQFICEKGIR
glycan array binding signal (z-score) [1]: 5.21 | glycan array binding signal (z-score) [2]: 0.398 | glycan array binding signal (z-score) [3]: 0.308 | glycan array binding signal (z-score) [4]: -0.095 | glycan array binding signal (z-score) [5]: -0.138 | glycan array binding signal (z-score) [6]: -0.084 | glycan array binding signal (z-score) [7]: 0.136 | glycan array binding signal (z-score) [8]: 0.363 | glycan array binding signal (z-score) [9]: 0.456 | glycan array binding signal (z-score) [10]: 0.012 | glycan array binding signal (z-score) [11]: -0.539 | glycan array binding signal (z-score) [12]: -0.215 | glycan array binding signal (z-score) [13]: -0.526 | glycan array binding signal (z-score) [14]: -0.552 | glycan array binding signal (z-score) [15]: 0.639 | glycan array binding signal (z-score) [16]: 1.05 | glycan array binding signal (z-score) [17]: 0.419 | glycan array binding signal (z-score) [18]: -0.428 | glycan array binding signal (z-score) [19]: -0.582 | glycan array binding signal (z-score) [20]: 0.024 | glycan array binding signal (z-score) [21]: 1.79 | glycan array binding signal (z-score) [22]: -0.432

Reference: the supplement of paper PMC8728848
